These are yes or no findings as the source states them, for the method shown. In cells and extracts the contact can be indirect. Some entries that bind do so weakly or less than the wild type. For part of these data: Where a sequence is shown, tags or fusion partners need not be part of it. Blank lines part the entries; values can stand above or below the molecule they belong to.
Experiments:
Flag-USP47 (human) = biological target: T1, Flag-USP47 (human) (UniProt Q96K76); experiment: co-IP; HEK-293T cells transfected with HA-IK or/and Flag-USP47; immunoprecipitated with an anti-HA or anti-Flag antibody; immunoblot for HA and FLAG
T1 sequence: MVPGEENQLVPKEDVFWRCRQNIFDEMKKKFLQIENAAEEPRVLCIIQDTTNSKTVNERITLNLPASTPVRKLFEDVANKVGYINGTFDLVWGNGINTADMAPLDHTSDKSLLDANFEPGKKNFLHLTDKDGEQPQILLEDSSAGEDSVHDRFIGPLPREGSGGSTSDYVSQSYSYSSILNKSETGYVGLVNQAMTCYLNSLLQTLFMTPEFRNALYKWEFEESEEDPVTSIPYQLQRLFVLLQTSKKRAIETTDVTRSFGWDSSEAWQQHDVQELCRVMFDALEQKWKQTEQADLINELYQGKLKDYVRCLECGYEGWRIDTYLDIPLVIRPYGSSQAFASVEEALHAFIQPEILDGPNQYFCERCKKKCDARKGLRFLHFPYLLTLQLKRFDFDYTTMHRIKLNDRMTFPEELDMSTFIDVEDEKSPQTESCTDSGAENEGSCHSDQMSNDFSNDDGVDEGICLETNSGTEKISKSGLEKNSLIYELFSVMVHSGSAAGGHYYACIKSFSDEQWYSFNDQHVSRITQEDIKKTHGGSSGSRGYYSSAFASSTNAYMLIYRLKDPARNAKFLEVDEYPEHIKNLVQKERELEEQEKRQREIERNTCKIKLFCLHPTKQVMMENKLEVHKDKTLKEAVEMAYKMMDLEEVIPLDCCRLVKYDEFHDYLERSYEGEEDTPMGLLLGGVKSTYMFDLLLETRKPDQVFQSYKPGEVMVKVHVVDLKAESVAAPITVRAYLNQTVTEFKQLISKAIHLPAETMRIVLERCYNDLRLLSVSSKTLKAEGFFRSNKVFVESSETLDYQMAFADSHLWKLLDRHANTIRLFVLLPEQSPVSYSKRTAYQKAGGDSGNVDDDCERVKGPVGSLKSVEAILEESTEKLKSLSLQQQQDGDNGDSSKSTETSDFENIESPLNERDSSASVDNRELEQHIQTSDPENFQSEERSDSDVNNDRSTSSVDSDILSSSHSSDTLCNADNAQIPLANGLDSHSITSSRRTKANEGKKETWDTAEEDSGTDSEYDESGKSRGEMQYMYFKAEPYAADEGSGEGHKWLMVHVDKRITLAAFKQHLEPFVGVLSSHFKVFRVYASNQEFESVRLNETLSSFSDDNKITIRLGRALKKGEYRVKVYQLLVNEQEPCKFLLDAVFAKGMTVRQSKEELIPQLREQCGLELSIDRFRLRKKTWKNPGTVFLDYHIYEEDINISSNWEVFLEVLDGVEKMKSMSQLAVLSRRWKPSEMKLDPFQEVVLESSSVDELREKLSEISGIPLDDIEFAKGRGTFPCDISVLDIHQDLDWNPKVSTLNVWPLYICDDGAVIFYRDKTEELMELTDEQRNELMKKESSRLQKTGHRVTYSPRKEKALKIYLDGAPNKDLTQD

By UniProt entry, the sequences of proteins in these tests, tags left out.
UniProt Q13123: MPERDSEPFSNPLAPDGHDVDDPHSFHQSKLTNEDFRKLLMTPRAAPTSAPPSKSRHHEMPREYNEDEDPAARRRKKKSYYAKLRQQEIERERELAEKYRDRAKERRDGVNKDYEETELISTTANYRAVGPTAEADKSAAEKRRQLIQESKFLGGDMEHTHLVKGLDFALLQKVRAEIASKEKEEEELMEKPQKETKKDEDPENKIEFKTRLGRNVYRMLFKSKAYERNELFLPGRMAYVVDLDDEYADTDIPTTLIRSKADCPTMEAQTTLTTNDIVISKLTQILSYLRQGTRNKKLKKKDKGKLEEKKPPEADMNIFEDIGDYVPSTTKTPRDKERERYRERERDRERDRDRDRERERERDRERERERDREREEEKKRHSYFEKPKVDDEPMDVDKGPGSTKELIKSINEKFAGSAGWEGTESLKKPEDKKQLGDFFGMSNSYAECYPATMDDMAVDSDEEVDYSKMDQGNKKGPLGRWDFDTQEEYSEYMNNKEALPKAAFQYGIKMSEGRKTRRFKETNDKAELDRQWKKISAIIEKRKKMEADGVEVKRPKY

[1] = biological target: T2, USP47 (endogenous) (human (endogenous in HeLa)) (UniProt Q96K76); experiment: co-IP; endogenous proteins; lysis buffer 50 mM Tris-HCl pH 8.0, 150 mM NaCl, 1 mM EDTA, 1% NP-40; lysate with 3 ug of antibody overnight, protein G agarose beads 2 h at 4 C, four washes; immunoblot
T2 sequence: T1 sequence

[2] = biological target: HA-IK (not stated (human or mouse cDNA cloned)) (UniProt Q13123); experiment: co-IP; HEK-293T cells transfected with HA-IK or/and Flag-USP47; immunoprecipitated with an anti-HA or anti-Flag antibody; immunoblot for HA and FLAG

- binding (Flag-USP47 (human)): binds
Molecule: HA-IK (from UniProt Q13123 1-557)

- binding [1]: binds
Molecule: IK (endogenous) (from UniProt Q13123 1-557)

- binding [2]: binds
B1: Flag-USP47 (enzyme, UniProt Q96K76 1-1375)
chain: T1 sequence

Reference: publication PMC7198525
